Test results from patent publication US10941351B2, “Layer-separation method of spent caustic solution” (SK Innovation Co., Ltd., priority 2016, dated 2021).

Test: Layer-separation of pH-adjusted spent caustic solution with additive: phenols remaining and phenol extraction rate
[1] = pH about 2, volume ratio spent caustic solution:additive 99:1, PSC 1,420 ppm

CCCCCCC [n-Heptane, n-heptane, reference compound]
PTSC (amount of phenols in final spent caustic solution) [1]: 1,360 ppm
Phenol extraction rate [1]: 4.2%

CCCCCCCCO [n-Octanol, n-octanol]
PTSC (amount of phenols in final spent caustic solution) [1]: 710 ppm
Phenol extraction rate [1]: 50.0%
Phenol extraction rate (volume ratio 90:10 (Example 10)): 82.4%
PTSC (volume ratio 90:10 (Example 10), PSC 1,420 ppm): 250 ppm
Phenol extraction rate (volume ratio 95:5 (Example 9)): 77.5%
PTSC (volume ratio 95:5 (Example 9), PSC 1,420 ppm): 320 ppm
Phenol extraction rate (volume ratio 97:3 (Example 8)): 69.7%
PTSC (volume ratio 97:3 (Example 8), PSC 1,420 ppm): 430 ppm
Phenol extraction rate (volume ratio 99.5:0.5 (Example 7)): 31.7%
PTSC (volume ratio 99.5:0.5 (Example 7), PSC 1,420 ppm): 970 ppm
Phenol extraction rate (volume ratio 99.8:0.2 (Example 6)): 16.2%
PTSC (volume ratio 99.8:0.2 (Example 6), PSC 1,420 ppm): 1,190 ppm
Phenol extraction rate (volume ratio 99.9:0.1 (Example 5)): 12.0%
PTSC (volume ratio 99.9:0.1 (Example 5), PSC 1,420 ppm): 1,250 ppm

CCCCCCCCO [Example 11, n-octanol]
Phenol extraction rate (regenerated additive re-injected into another spent caustic solution, volume ratio 99:1): 45%

CCCCCC [n-Hexane, n-hexane, reference compound]
PTSC (amount of phenols in final spent caustic solution) [1]: 1,330 ppm
Phenol extraction rate [1]: 6.3%

CCCCC(CC)CO (centres unmarked) [2-Ethyl-1-hexanol, 2-ethyl-1-hexanol]
PTSC (amount of phenols in final spent caustic solution) [1]: 700 ppm
Phenol extraction rate [1]: 50.7%
Phenol extraction rate (pH about 2, volume ratio spent caustic solution:additive 99:1, PSC 1,420 ppm, listed as 2-ethyl-1-hexanol): about 51%

CCCCCCO [n-Hexanol, n-hexanol]
PTSC (amount of phenols in final spent caustic solution) [1]: 630 ppm
Phenol extraction rate [1]: 55.6%

Cc1ccccc1 [Toluene, toluene, reference compound]
PTSC (amount of phenols in final spent caustic solution) [1]: 1,030 ppm
Phenol extraction rate [1]: 27.5%
Phenol extraction rate (pH about 2, volume ratio spent caustic solution:additive 99:1, PSC 1,420 ppm, listed as Comparative Example 6): about 27%

CCOC(C)=O [Ethyl acetate, ethyl acetate, reference compound]
PTSC (amount of phenols in final spent caustic solution) [1]: 1,040 ppm
Phenol extraction rate [1]: 26.7%
Phenol extraction rate (pH about 2, volume ratio spent caustic solution:additive 99:1, PSC 1,420 ppm, listed as Comparative Example 3): about 27%

CCCCOC(C)=O [Butyl acetate, butyl acetate]
PTSC (amount of phenols in final spent caustic solution) [1]: 540 ppm
Phenol extraction rate [1]: 62.0%
